Source: patent publication US7465814B2, “Sulfonate compound and fluorescent probe using the same” (priority 2003, dated 2008)

Experiment: Fluorescence response to glutathione, quantitativity (FIG. 5)
Type: biochemical
Details: up to 1000 pmol
Method: Quantitativity and the like of each of the compounds 6a and 8a with respect to a mercapto compound were evaluated, by using glutathione (GSH) and cysteine that are kinds of thiol. More specifically, an EtOH solution of the compound 6a (10 mM) was prepared, and it further was diluted by 500-fold with a HEPES buffer solution having a pH of 7.4, thereby preparing a probe solution containing the compound 6a. Next, 200 μL of this probe solution and 10 μL of each of solutions of glutathione or cysteine (dissolved in a HEPES buffer solution having a pH of 7.4) with various concentrations were added into each well of a 96-wellmicroplate, and were allowed to stand still at 37° C. for 10 minutes so as to undergo a reaction. Moreover, a probe solution containing 8a was prepared in the same manner as the preparation of the solution of the compound 6a except using 8a instead of 6a, and this probe solution also was allowed to react with a thiol solution in the same manner as the reaction of the probe solution containing 6a. Then, a fluorescence response of each well was measured after the reaction. The measurement of 6a was conducted at λex=383 nm and λem=500 nm, and the measurement of 8a was conducted at λex=483 nm and λem=515 nm. Herein, λex denotes an excitation wavelength, and λem denotes an emission wavelength. […]

SMILES | correlation coefficient (r), GSH
O=c1cc(C(F)(F)F)c2ccc(OS(=O)(=O)c3ccc([N+](=O)[O-])cc3[N+](=O)[O-])cc2o1 [Compound 6a] | 0.9998
O=C(O)c1ccccc1-c1c2ccc(=O)cc-2oc2cc(OS(=O)(=O)c3ccc([N+](=O)[O-])cc3[N+](=O)[O-])ccc12 [Compound 8a] | 1.0000
